The experiment deals with LSD1 (Homo sapiens, UniProt O60341). Nature of the experiment: LSD1 enzyme inhibition assay (H3K4me2 substrate, Amplex Red/HRP fluorescence). Particulars: newly synthesized compounds.

The structures given here were assigned with low confidence; some may be wrong.

From paper PMC6943670, “Investigating the Binding Mode of Reversible LSD1 Inhibitors Derived from Stilbene Derivatives by 3D-QSAR, Molecular Docking, and Molecular Dynamics Simulation” (Molecules, 2019) come the findings set out here.

In the case of `O=C(/C=C/c1ccc(/C=C/c2ccc3c(c2)CCO3)cc1)NO`, the IC50 came to 4.67 µM and the pIC50 is 5.331.

One may read the IC50 as the concentration needed to halve the response being measured. The low end stands for higher potency, the high end for lower potency. In general, pIC50 refers to −log10 of the IC50, conventionally taken in molar units. High values mean a small IC50, low ones a large IC50.
